In patent US11529332B2 (priority 2017, dated 2022):

Test system: MYXV
Assay: MYXV-GFP infection rate in RK13 cells (high content microscopy)
Conditions: selectivity index, ratio CC50 / IC50

Structure (SMILES) | SI (48 h PI) | SI (6 d PI)
O=[N+]([O-])c1ccc(-c2c3nc(c4ccc([nH]4)c(-c4ccc([N+](=O)[O-])cc4)c4ccc([nH]4)c(-c4ccc([N+](=O)[O-])cc4)c4ccc2[nH]4)C=C3)cc1 [TpNO2Cor, 5,10,15-Tris(4-nitrophenyl)corrole] | 10.25 | 21.45
Fc1c(F)c(F)c(-c2c3nc(c4ccc([nH]4)c(-c4c(F)c(F)c(F)c(F)c4F)c4ccc([nH]4)c(-c4c(F)c(F)c(F)c(F)c4F)c4ccc2[nH]4)C=C3)c(F)c1F [TPFCor, 5,10,15-Tris(pentafluorophenyl)corrole] | 24.40 | 55.31
O=[N+]([O-])c1ccc(F)c(-c2c3nc(c4ccc([nH]4)c(-c4cc([N+](=O)[O-])ccc4F)c4ccc([nH]4)c(-c4cc([N+](=O)[O-])ccc4F)c4ccc2[nH]4)C=C3)c1 [FNO2Cor, 5,10,15-Tris(2-fluoro-5-nitrophenyl)corrole] | 2.81 | 7.52
